Experimental data taken from patent US20240270861A1.
No constants are given. Whether binding was seen depends on the method and setting. Some results given as binding are weak or reduced against the parent protein; the word gives no strength.

Amino acid sequences for entries named in this document (tags omitted). A change or cut given only in a name is not applied to a line headed by its entry.
UniProt Q96RJ3: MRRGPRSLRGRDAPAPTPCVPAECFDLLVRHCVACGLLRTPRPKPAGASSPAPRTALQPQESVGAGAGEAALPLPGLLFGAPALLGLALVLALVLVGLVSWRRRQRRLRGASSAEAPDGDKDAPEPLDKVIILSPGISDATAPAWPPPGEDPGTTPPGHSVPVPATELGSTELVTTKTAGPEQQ

Target: hBAFF-R-hFc-His fusion protein (human) (UniProt Q96RJ3)
Assay: yeast display, off-rate challenge with non-biotinylated hBAFF-R-hFc-His; bound before the challenge

binding: binds
B1: ianalumab-based scFv benchmark control displayed on yeast (scFv, V domains shown)
VH: QVQLQQSGPGLVKPSQTLSLTCAISGDSVSSNSAAWGWIRQSPGRGLEWLGRIYYRSKWYNSYAVSVKSRITINPDTSKNQFSLQLNSVTPEDTAVYYCARYQWVPKIGVFDSWGQGTLVTVSS
VL: DIVLTQSPATLSLSPGERATLSCRASQFILPEYLSWYQQKPGQAPRLLIYGSSSRATGVPARFSGSGSGTDFTLTISSLEPEDFAVYYCQQFYSSPLTFGQGTKVEIK
